Experimental findings from patent US20200016266A1 are described below.

Chains of the proteins cited; added tags and fusions are not shown. Lines headed by an entry give the natural chain unless they say otherwise; changes in a name come on top. A line that says so, or that is headed by a name, gives the form on record, which may keep a tag or linker.
Ig1 (P35968, form named): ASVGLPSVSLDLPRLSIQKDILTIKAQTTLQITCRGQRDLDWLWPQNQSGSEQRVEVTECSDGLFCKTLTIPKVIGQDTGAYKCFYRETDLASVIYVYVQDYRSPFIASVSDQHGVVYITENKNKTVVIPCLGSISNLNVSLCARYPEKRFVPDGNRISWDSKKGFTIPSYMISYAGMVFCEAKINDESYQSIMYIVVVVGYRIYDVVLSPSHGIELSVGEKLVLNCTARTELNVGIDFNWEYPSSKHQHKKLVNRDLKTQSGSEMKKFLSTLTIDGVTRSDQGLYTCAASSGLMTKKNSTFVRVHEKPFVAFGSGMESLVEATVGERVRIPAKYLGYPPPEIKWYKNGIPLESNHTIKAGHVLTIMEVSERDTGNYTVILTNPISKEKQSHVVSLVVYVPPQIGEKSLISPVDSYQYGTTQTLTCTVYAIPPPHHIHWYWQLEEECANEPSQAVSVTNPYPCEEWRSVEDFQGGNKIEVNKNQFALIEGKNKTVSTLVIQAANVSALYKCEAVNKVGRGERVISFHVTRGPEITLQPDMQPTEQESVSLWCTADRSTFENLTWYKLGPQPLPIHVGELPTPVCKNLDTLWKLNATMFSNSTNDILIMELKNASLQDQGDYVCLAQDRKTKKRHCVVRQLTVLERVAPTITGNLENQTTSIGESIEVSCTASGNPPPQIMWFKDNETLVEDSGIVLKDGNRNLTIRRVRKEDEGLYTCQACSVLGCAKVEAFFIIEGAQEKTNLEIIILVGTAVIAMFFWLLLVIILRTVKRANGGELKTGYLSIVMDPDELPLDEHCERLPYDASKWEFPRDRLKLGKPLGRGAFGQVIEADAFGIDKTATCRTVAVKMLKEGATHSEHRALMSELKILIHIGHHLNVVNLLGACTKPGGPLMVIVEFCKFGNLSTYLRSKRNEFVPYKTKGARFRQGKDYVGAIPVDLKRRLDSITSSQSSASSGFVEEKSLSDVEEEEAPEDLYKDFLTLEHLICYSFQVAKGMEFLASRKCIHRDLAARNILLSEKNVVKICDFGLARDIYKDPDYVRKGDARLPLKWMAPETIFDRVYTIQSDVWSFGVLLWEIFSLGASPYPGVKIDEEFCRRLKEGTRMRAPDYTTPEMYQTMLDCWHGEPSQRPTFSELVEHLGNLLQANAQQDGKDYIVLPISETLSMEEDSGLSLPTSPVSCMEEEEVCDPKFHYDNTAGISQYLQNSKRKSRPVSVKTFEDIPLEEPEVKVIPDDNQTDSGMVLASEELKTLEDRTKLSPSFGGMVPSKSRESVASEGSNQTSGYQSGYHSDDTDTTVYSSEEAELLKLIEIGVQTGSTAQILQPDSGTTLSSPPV
Ig2 (P35968, form named): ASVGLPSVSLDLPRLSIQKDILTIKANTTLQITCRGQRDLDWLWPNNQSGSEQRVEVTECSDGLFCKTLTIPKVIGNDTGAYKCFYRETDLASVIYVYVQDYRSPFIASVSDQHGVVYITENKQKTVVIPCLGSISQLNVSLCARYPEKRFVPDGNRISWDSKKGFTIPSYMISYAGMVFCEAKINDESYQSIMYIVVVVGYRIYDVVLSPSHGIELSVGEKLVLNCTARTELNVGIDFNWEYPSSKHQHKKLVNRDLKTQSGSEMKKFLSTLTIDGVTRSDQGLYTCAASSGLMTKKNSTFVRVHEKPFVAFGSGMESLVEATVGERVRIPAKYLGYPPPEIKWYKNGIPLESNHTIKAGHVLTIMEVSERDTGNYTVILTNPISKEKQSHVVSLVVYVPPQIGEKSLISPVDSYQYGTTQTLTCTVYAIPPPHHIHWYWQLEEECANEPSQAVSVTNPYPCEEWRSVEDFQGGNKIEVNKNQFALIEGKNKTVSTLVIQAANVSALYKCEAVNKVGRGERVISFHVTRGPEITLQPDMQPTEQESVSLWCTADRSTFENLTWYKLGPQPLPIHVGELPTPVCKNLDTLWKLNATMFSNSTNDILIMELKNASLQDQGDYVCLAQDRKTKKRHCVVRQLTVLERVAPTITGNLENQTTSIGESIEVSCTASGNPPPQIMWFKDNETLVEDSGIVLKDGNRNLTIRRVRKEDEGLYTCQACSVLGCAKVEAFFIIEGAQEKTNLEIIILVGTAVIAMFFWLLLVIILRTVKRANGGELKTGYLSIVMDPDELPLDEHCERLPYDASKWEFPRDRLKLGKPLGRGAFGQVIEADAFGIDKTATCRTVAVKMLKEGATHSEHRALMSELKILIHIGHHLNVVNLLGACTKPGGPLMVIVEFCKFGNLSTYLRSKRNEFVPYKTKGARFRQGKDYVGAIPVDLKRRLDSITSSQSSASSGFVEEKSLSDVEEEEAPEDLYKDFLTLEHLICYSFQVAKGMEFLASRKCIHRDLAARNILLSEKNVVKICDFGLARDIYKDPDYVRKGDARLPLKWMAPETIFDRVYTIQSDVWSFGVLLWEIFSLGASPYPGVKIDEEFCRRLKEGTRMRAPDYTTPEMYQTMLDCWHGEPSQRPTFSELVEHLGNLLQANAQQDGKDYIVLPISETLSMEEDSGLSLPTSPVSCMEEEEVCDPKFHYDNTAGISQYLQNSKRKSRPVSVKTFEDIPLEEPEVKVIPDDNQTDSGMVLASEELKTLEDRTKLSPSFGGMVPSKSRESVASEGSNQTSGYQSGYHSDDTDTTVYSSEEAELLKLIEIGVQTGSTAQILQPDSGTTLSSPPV
UniProt P09382: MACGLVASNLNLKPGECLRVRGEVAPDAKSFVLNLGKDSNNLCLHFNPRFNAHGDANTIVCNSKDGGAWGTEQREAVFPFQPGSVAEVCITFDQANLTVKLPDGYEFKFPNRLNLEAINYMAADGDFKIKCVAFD

The target in assay [1] is Ig1 (Homo sapiens) (UniProt P35968). The experiment in a line: anti-HA bead immunoprecipitation of KDR-HA from HEK 293T lysates, incubation with Gal1 and Alexa Fluor 488 anti-Gal1 Ab, flow cytometry; % relative to KDR-HA WT.
The target in assay [2] is Ig2 (Homo sapiens) (UniProt P35968). Described as above.

These are yes or no findings as the source states them, for the method shown. Some results given as binding are weak or reduced against the parent protein; the word gives no strength.

In the case of “Galectin-1 (human recombinant Gal1) (from UniProt P09382 2-135) (ligand)”, the binding result in assay [1] and in assay [2] was “binds” in each case.
